# Measurements taken from the supplement of paper PMC10849652.
# Protein sequences, listed by entry. Tags and fused reporters are not part of them. Lines headed by an entry give the natural chain unless they say otherwise; changes in a name come on top.
# UniProt P17676: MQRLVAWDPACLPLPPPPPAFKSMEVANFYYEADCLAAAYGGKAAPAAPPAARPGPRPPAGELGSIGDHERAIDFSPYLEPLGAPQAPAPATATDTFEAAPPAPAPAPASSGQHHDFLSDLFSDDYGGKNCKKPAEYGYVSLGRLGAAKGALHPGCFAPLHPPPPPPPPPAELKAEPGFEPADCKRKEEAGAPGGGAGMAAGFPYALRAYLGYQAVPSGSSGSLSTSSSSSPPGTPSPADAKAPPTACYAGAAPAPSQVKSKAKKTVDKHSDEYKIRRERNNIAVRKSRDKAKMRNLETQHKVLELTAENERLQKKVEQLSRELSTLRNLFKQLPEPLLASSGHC
# UniProt O75956: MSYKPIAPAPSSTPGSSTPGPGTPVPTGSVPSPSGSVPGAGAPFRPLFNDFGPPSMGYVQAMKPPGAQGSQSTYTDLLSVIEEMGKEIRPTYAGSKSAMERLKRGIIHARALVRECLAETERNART
# UniProt Q53HL2: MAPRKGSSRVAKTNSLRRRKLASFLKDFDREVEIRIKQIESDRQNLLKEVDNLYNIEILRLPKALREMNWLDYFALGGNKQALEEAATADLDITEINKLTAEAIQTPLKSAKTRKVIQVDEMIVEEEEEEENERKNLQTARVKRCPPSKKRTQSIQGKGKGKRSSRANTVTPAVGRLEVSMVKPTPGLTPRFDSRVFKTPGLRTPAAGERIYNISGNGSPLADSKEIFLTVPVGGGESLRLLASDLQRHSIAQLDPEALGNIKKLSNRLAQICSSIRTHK
# UniProt Q9NRR8: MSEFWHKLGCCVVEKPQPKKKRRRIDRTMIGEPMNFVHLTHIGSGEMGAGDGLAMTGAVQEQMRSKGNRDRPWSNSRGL
# UniProt Q9C0D2: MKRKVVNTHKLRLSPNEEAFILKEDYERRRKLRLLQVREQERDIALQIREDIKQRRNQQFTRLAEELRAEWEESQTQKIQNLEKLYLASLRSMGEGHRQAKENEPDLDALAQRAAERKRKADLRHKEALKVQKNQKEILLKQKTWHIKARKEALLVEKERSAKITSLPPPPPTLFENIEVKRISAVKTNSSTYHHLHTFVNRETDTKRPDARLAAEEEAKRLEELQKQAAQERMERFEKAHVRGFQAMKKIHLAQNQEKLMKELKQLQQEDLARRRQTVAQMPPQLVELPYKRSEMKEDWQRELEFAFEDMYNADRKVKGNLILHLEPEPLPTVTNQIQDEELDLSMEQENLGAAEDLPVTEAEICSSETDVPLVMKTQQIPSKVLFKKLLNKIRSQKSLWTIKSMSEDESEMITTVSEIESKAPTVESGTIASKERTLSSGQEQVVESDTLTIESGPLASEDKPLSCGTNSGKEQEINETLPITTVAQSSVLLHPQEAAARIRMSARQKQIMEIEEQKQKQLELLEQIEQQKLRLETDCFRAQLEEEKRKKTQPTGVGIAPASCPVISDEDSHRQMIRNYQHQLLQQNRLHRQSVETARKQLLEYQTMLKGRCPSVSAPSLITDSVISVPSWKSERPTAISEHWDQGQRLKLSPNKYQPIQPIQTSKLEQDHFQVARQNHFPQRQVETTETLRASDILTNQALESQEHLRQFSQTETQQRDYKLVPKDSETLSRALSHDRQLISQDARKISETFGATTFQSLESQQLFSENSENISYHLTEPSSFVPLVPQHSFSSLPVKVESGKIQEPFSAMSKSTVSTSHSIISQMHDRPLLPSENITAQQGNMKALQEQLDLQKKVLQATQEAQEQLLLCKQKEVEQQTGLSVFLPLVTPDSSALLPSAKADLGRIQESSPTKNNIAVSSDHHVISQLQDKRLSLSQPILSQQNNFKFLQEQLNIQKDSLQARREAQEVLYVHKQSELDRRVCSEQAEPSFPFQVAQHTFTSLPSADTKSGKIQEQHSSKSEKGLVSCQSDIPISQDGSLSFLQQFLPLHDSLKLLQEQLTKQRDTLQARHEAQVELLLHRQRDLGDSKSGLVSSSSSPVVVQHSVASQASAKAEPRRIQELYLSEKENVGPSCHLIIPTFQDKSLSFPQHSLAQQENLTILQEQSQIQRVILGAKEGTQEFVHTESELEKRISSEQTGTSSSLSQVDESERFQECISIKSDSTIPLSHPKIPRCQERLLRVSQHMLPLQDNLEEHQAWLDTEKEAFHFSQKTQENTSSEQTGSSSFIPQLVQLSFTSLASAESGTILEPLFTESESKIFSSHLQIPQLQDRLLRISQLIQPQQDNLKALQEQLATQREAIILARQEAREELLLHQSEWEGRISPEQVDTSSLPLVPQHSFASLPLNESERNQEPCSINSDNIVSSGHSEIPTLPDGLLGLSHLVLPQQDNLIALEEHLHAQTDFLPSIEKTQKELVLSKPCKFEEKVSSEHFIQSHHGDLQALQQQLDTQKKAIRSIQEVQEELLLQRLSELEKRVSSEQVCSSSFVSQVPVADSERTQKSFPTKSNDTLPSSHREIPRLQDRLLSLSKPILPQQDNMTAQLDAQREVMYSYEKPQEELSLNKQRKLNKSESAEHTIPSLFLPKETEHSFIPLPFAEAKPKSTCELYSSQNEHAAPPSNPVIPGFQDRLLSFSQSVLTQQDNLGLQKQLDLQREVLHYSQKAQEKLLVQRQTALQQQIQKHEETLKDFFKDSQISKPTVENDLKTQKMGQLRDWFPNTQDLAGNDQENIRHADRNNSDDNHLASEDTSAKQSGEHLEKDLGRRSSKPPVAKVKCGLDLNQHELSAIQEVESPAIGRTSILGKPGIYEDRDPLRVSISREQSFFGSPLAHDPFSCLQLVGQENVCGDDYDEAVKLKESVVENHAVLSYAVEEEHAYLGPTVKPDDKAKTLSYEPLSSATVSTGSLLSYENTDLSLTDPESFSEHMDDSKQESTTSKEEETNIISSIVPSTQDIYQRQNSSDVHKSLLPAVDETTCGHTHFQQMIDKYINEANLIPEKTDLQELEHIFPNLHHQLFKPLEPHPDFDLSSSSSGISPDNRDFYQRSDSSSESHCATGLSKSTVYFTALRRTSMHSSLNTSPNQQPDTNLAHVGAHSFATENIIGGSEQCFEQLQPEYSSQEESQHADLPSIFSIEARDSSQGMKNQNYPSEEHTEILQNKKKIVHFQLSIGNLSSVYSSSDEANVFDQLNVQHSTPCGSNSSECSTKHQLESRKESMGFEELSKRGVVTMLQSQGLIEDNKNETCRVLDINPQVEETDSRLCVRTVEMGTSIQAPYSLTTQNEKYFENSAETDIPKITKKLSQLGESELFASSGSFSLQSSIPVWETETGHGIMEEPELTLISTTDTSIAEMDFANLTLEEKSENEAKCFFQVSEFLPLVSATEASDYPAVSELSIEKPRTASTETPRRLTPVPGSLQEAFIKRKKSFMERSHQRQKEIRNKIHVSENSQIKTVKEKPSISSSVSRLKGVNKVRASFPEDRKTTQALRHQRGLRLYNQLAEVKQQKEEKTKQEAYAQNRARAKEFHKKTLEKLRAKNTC
# UniProt Q00537: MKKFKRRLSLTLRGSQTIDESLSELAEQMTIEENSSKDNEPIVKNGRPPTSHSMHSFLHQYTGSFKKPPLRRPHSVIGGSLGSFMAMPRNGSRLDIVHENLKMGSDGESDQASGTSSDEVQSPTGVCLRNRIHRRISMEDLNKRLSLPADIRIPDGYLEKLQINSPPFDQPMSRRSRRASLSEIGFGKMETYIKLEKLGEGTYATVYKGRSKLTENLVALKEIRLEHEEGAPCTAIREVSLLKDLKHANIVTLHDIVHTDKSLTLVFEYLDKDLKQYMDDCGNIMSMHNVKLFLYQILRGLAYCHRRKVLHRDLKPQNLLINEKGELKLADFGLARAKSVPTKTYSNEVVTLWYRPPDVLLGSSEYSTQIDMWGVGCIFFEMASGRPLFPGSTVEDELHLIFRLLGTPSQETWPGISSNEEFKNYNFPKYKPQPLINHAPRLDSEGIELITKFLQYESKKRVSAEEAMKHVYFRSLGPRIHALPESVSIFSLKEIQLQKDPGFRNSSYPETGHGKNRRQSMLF
# UniProt Q96SZ6: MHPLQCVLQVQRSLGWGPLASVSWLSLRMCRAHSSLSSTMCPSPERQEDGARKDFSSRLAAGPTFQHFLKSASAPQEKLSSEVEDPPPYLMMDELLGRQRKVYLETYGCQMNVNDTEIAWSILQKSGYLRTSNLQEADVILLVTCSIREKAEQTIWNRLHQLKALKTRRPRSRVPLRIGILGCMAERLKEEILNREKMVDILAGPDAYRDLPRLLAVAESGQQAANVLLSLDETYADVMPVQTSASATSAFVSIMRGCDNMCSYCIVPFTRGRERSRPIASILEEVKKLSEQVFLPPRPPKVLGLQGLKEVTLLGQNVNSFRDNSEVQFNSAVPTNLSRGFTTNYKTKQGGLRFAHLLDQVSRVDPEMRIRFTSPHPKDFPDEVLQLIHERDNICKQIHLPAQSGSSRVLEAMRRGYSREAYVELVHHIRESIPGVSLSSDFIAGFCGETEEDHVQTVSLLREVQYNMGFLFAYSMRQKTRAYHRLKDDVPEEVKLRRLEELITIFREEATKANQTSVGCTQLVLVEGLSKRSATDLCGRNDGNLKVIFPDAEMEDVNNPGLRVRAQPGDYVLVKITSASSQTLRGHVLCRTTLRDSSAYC
# UniProt Q9BU64: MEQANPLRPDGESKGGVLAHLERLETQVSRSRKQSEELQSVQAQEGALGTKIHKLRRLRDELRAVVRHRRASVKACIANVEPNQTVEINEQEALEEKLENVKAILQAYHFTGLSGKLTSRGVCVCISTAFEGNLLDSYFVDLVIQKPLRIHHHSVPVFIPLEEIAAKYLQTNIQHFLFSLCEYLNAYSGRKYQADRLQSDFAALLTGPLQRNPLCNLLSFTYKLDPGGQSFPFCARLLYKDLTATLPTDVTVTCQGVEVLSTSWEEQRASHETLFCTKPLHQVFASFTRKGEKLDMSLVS
# UniProt O14613: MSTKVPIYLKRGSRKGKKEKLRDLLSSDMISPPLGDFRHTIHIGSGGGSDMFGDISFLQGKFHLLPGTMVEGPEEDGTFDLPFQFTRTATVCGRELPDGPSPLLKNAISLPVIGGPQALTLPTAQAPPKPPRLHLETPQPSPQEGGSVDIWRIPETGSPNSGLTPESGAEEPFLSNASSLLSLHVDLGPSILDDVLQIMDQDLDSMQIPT
# UniProt A8MT69: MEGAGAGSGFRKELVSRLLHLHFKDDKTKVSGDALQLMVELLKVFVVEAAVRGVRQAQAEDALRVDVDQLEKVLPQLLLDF
# UniProt Q5JTW2: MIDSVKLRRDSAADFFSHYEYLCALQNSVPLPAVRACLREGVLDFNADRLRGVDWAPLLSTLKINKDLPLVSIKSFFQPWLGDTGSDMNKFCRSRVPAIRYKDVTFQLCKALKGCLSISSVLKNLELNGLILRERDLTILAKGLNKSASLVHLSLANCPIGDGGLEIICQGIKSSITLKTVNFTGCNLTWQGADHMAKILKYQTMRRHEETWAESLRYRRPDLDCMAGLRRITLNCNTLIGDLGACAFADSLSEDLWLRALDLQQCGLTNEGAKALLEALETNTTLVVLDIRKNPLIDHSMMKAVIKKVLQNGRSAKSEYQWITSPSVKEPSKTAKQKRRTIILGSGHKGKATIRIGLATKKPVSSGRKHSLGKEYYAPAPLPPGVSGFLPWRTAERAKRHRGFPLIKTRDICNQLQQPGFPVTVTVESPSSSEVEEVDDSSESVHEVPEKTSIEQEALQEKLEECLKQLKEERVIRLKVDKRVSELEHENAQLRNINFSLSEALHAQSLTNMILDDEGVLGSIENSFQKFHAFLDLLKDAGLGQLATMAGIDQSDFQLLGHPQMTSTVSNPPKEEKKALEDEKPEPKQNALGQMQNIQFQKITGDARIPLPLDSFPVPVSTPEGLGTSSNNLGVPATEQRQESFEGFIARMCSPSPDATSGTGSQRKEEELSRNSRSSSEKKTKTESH
# UniProt Q76N32: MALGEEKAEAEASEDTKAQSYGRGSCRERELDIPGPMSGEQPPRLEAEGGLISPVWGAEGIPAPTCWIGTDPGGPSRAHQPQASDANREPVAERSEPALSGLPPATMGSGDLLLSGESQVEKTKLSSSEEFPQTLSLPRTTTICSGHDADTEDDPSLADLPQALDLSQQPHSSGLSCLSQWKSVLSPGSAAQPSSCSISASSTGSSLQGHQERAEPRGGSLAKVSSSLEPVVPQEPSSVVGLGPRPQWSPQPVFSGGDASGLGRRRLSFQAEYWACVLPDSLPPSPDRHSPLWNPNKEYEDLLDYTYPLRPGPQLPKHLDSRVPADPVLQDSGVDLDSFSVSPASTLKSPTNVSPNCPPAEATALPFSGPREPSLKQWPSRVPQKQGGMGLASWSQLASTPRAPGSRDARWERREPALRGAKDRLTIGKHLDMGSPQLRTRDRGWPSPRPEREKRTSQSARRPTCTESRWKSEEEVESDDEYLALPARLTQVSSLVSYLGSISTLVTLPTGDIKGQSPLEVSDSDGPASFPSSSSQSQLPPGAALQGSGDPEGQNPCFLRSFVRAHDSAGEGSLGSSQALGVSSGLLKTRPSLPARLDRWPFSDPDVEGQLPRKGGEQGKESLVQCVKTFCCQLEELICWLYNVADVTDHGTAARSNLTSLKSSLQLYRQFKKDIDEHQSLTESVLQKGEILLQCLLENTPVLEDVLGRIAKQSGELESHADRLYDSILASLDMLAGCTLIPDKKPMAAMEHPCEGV
# This is one part of the list.
# Experiments:
# Experiment in all cases: log2 fold change, soluble protein after heating vs DMSO (PISA); higher = thermal stabilisation; K562 lysate, 10 uM; active = over 0.2 and 3.5 SD of the protein, either way, in both replicates (recomputed)
# [1] = compound: CC(=O)c1cnc2ccc(-c3cc(Cl)c(O)c(Cl)c3)nc2c1N[C@H]1CC[C@H](CN(C)C)CC1
# Outline: (§1)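 Soluble protein was defined as the supernatant remaining after 21,000xg for 90 min, following pooling of heated aliquots and adjustment to 0.5% NP-40 at 4°C. Before that, crude K562 extract at 1 mg/mL protein in PBS pH 7.4 with 1 mM MgCl2 was treated with 10 μM compound for 30 min and heated for 3 min across 48°C-58°C. Quantification used TMTpro 16plex LC-MS/MS with channel sums equalised, and values are log-two fold changes in thermal stability relative to solvent controls from duplicates.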
# ralimetinib = compound: CC(C)(C)Cn1c(N)nc2ccc(-c3[nH]c(C(C)(C)C)nc3-c3ccc(F)cc3)nc21 [ralimetinib]
# Outline: as §1
# [2] = compound: CC(C)(O)CC(=O)NCCn1ccc2ncnc(Nc3ccc(Oc4cccc(C(F)(F)F)c4)c(Cl)c3)c21
# Outline: as §1
# [3] = compound: CC(C)C1=C2N=C(C=C(N2N=C1)NCC3=CC=CC=C3)NCCCCCCN
# Outline: as §1
# [4] = compound: CC1=C(C(CC(=O)N1)C2=CC=C(C=C2)C(F)(F)F)C(=O)NC3=C(C=C4C(=C3)C=NN4)F
# Outline: as §1
# [5] = compound: CC1=C(C2=C(C=C1)C(=O)C3=CC=CC=C3N2CCCN)C
# Outline: as §1
# [6] = compound: CC1=C(C=C(C=C1)NC(=O)C2=CC(=CC=C2)C(C)(C)C#N)NC3=CC4=C(C=C3)N=CN(C4=O)C
# Outline: as §1
# [7] = compound: CC1=C(C=C(C=C1)NC(=O)C2=CC(=CC=C2)N(C)C)NC(=O)C3=CC=C(C=C3)O
# Outline: as §1
# [8] = compound: CC1=CC=C(C=C1)SC2=C3C=C(SC3=CN=C2)C(=O)N
# Outline: as §1
# vemurafenib = compound: CCCS(=O)(=O)Nc1ccc(F)c(C(=O)c2c[nH]c3ncc(-c4ccc(Cl)cc4)cc23)c1F [vemurafenib]
# Outline: as §1
# [9] = compound: CCCS(=O)(=O)Nc1ccc(F)c(C(=O)c2c[nH]c3ncc(Cl)cc23)c1F
# Outline: as §1
# [10] = compound: CC[C@@H]1C(=O)N(C)c2cnc(Nc3ccc(C(=O)NC4CCN(C)CC4)cc3OC)nc2N1C1CCCC1
# Outline: as §1
# volasertib = compound: CC[C@@H]1C(=O)N(C)c2cnc(Nc3ccc(C(=O)N[C@H]4CC[C@H](N5CCN(CC6CC6)CC5)CC4)cc3OC)nc2N1C(C)C [volasertib]
# Outline: as §1
# [11] = compound: CCn1c(C(=O)N(C2CC2)C2CC2)cc2c3c(ncn3C)c(Nc3cc(C)n(C)n3)nc21
# Outline: as §1
# [12] = compound: CCn1cc(-c2ccnc3[nH]c(-c4cccc(CN(C)C)c4)cc23)c(-c2ccc(NC(=O)N(C)C)cc2)n1
# Outline: as §1
# [13] = compound: CN1CCC(CNc2ccc3ncc(-c4cccc(OC(F)(F)F)c4)n3n2)CC1
# Outline: as §1
# saracatinib = compound: CN1CCN(CCOc2cc(OC3CCOCC3)c3c(Nc4c(Cl)ccc5c4OCO5)ncnc3c2)CC1 [saracatinib]
# Outline: as §1
# sotrastaurin = compound: CN1CCN(c2nc(C3=C(c4c[nH]c5ccccc45)C(=O)NC3=O)c3ccccc3n2)CC1 [sotrastaurin]
# Outline: as §1
# ibrutinib = compound: C=CC(=O)N1CCC[C@@H](n2nc(-c3ccc(Oc4ccccc4)cc3)c3c(N)ncnc32)C1 [ibrutinib]
# Outline: as §1
# barasertib = compound: CCN(CCCOc1ccc2c(Nc3cc(CC(=O)Nc4cccc(F)c4)[nH]n3)ncnc2c1)CCOP(=O)(O)O [barasertib]
# Outline: as §1
target,measurement,setting,value
CFAP47 (UniProt Q6ZTR5),log2 fold change,[1],inactive: -0.024
same,log2 fold change,ralimetinib,inactive: -0.233
same,log2 fold change,[2],inactive: -0.251
same,log2 fold change,[3],inactive: -0.005
same,log2 fold change,[4],inactive: -0.167
same,log2 fold change,[5],inactive: -0.271
same,log2 fold change,[6],inactive: 0.292
same,log2 fold change,[7],inactive: -0.005
same,log2 fold change,[8],inactive: -0.118
same,log2 fold change,vemurafenib,inactive: -0.088
same,log2 fold change,[9],inactive: 0.218
same,log2 fold change,[10],inactive: 0.142
same,log2 fold change,volasertib,inactive: 0.173
same,log2 fold change,[11],inactive: -0.273
same,log2 fold change,[12],inactive: -0.286
same,log2 fold change,[13],inactive: 0.05
same,log2 fold change,saracatinib,inactive: 0.069
same,log2 fold change,sotrastaurin,inactive: 0.04
CEBPB (UniProt P17676),log2 fold change,ibrutinib,inactive: 0.114
same,log2 fold change,ralimetinib,inactive: 0.313
same,log2 fold change,[2],inactive: 0.016
same,log2 fold change,[3],inactive: 0.016
same,log2 fold change,[5],inactive: -0.006
same,log2 fold change,[6],inactive: 0.187
same,log2 fold change,[7],inactive: -0.102
same,log2 fold change,vemurafenib,inactive: 0.063
same,log2 fold change,barasertib,inactive: -0.019
same,log2 fold change,[10],inactive: 0.055
same,log2 fold change,[11],inactive: 0.108
same,log2 fold change,[12],inactive: 0.119
same,log2 fold change,[13],inactive: 0.128
same,log2 fold change,saracatinib,inactive: 0.025
same,log2 fold change,sotrastaurin,inactive: -0.043
CFL1 (UniProt E9PP50),log2 fold change,ibrutinib,inactive: 0.175
same,log2 fold change,[1],inactive: 0.04
same,log2 fold change,[8],inactive: 0.132
same,log2 fold change,[9],inactive: -0.127
same,log2 fold change,barasertib,inactive: 1.26
same,log2 fold change,[10],inactive: -0.064
same,log2 fold change,volasertib,inactive: -0.102
CDC37 (UniProt K7EL68),log2 fold change,ibrutinib,inactive: -0.179
same,log2 fold change,[6],inactive: 0.072
same,log2 fold change,vemurafenib,inactive: 0.012
same,log2 fold change,barasertib,inactive: -0.01
same,log2 fold change,[12],inactive: 0.179
same,log2 fold change,[13],inactive: 0.083
same,log2 fold change,sotrastaurin,inactive: -0.089
CDK2AP2 (UniProt O75956),log2 fold change,ibrutinib,inactive: 0.12
same,log2 fold change,[1],inactive: -0.048
same,log2 fold change,[3],inactive: 0.061
same,log2 fold change,[4],inactive: -0.018
same,log2 fold change,[5],inactive: -0.034
same,log2 fold change,[6],inactive: 0.183
same,log2 fold change,[8],inactive: 0.015
same,log2 fold change,vemurafenib,inactive: -0.3
same,log2 fold change,[9],inactive: -0.002
same,log2 fold change,barasertib,inactive: 0.082
same,log2 fold change,volasertib,inactive: 0.068
same,log2 fold change,[12],inactive: 0.181
same,log2 fold change,[13],inactive: -0.023
same,log2 fold change,saracatinib,inactive: 0.003
same,log2 fold change,sotrastaurin,inactive: -0.181
CEP164 (UniProt Q9UPV0),log2 fold change,ibrutinib,inactive: -0.075
same,log2 fold change,[1],inactive: -0.053
same,log2 fold change,[3],inactive: -0.216
same,log2 fold change,[8],inactive: 0.038
same,log2 fold change,[9],inactive: 0.052
same,log2 fold change,barasertib,inactive: 0.102
same,log2 fold change,volasertib,inactive: -0.002
CDCA8 (UniProt Q53HL2),log2 fold change,ibrutinib,inactive: 0.047
same,log2 fold change,[3],inactive: -0.082
same,log2 fold change,[4],inactive: 0.038
same,log2 fold change,[5],inactive: 0.011
same,log2 fold change,vemurafenib,inactive: 0.025
same,log2 fold change,barasertib,inactive: 0.106
same,log2 fold change,[10],inactive: 0.051
same,log2 fold change,[12],active: 0.677
same,log2 fold change,[13],inactive: -0.034
same,log2 fold change,saracatinib,inactive: 0.171
CDC42SE1 (UniProt Q9NRR8),log2 fold change,ibrutinib,inactive: 0.019
same,log2 fold change,[1],inactive: 0.094
same,log2 fold change,[4],inactive: -0.33
same,log2 fold change,[6],inactive: 0.013
same,log2 fold change,[8],inactive: -0.115
same,log2 fold change,[9],inactive: 0
same,log2 fold change,barasertib,inactive: -0.418
same,log2 fold change,volasertib,inactive: 0.178
same,log2 fold change,[12],inactive: -0.283
same,log2 fold change,[13],inactive: -0.14
same,log2 fold change,sotrastaurin,inactive: -0.076
CEP295 isoform 3 (UniProt Q9C0D2),log2 fold change,ibrutinib,inactive: -0.182
same,log2 fold change,[1],inactive: -0.048
same,log2 fold change,ralimetinib,inactive: 0.005
same,log2 fold change,[2],inactive: 0.009
same,log2 fold change,[3],inactive: -0.019
same,log2 fold change,[4],inactive: 0.02
same,log2 fold change,[6],inactive: 0.041
same,log2 fold change,[7],inactive: 0
same,log2 fold change,[8],inactive: 0.053
same,log2 fold change,[9],inactive: -0.058
same,log2 fold change,barasertib,inactive: -0.039
same,log2 fold change,[10],inactive: 0.052
same,log2 fold change,volasertib,inactive: 0.043
same,log2 fold change,[11],inactive: -0.028
same,log2 fold change,[12],inactive: -0.387
same,log2 fold change,[13],inactive: 0.001
same,log2 fold change,sotrastaurin,inactive: 0.005
CDK17 isoform 2 (UniProt Q00537),log2 fold change,ibrutinib,inactive: -0.029
same,log2 fold change,ralimetinib,inactive: -0.019
same,log2 fold change,[2],inactive: -0.003
same,log2 fold change,[3],inactive: -0.037
same,log2 fold change,[4],inactive: -0.162
same,log2 fold change,[5],inactive: -0.08
same,log2 fold change,[6],inactive: 0.029
same,log2 fold change,[7],inactive: 0.057
same,log2 fold change,vemurafenib,inactive: -0.115
same,log2 fold change,barasertib,inactive: 0.011
same,log2 fold change,[10],inactive: -0.078
same,log2 fold change,[11],inactive: -0.007
same,log2 fold change,[12],inactive: 0.091
same,log2 fold change,[13],inactive: -0.299
same,log2 fold change,saracatinib,inactive: -0.017
same,log2 fold change,sotrastaurin,inactive: 0.03
CDK5RAP1 (UniProt Q96SZ6),log2 fold change,ibrutinib,inactive: -0.369
same,log2 fold change,ralimetinib,inactive: -0.018
same,log2 fold change,[2],inactive: -0.062
same,log2 fold change,[3],inactive: 0.122
same,log2 fold change,[4],inactive: -0.002
same,log2 fold change,[5],inactive: -0.027
same,log2 fold change,[6],inactive: -0.001
same,log2 fold change,[7],inactive: 0.045
same,log2 fold change,vemurafenib,inactive: -0.03
same,log2 fold change,barasertib,inactive: 0.025
same,log2 fold change,[10],inactive: 0.059
same,log2 fold change,[11],inactive: 0.035
same,log2 fold change,[12],inactive: 0.023
same,log2 fold change,[13],inactive: 0.026
same,log2 fold change,saracatinib,inactive: 0.026
same,log2 fold change,sotrastaurin,inactive: -0.037
CENPO (UniProt Q9BU64),log2 fold change,[3],inactive: -0.06
same,log2 fold change,[4],inactive: 0
same,log2 fold change,[12],inactive: -0.122
same,log2 fold change,[13],inactive: 0.084
CDC42EP2 (UniProt O14613),log2 fold change,ralimetinib,inactive: -0.008
same,log2 fold change,[2],inactive: 0.07
same,log2 fold change,[6],inactive: 0.116
same,log2 fold change,[7],inactive: -0.029
same,log2 fold change,vemurafenib,inactive: -0.059
same,log2 fold change,[11],inactive: -0.12
same,log2 fold change,sotrastaurin,inactive: 0.014
CEP104 (UniProt O60308),log2 fold change,ralimetinib,inactive: -0.054
same,log2 fold change,[2],inactive: 0.015
same,log2 fold change,[7],inactive: -0.201
same,log2 fold change,[11],inactive: 0.081
CENPX (UniProt A8MT69),log2 fold change,ralimetinib,inactive: -0.014
same,log2 fold change,[2],inactive: 0.161
same,log2 fold change,[6],inactive: -0.062
same,log2 fold change,[7],inactive: -0.206
same,log2 fold change,[11],inactive: 0.417
same,log2 fold change,sotrastaurin,inactive: -0.001
"CDC42, A0A494C1M1",log2 fold change,[1],inactive: -0.01
same,log2 fold change,[4],inactive: -0.029
same,log2 fold change,[8],inactive: 0.118
same,log2 fold change,[9],inactive: 0.054
same,log2 fold change,volasertib,inactive: -0.034
same,log2 fold change,[12],inactive: 0.178
same,log2 fold change,[13],inactive: 0.017
CEP78 isoform 2 (UniProt Q5JTW2),log2 fold change,[3],inactive: -0.074
same,log2 fold change,[5],inactive: -0.116
same,log2 fold change,[6],inactive: -0.012
same,log2 fold change,saracatinib,inactive: 0.05
same,log2 fold change,sotrastaurin,inactive: 0.062
CDPF1 (UniProt Q6NVV7),log2 fold change,ralimetinib,inactive: -0.111
same,log2 fold change,[2],inactive: -0.036
same,log2 fold change,[6],inactive: 0.011
same,log2 fold change,[7],inactive: 0.214
same,log2 fold change,[11],inactive: -0.029
same,log2 fold change,sotrastaurin,inactive: -0.028
CEP68 (UniProt Q76N32),log2 fold change,[3],inactive: 0.14
same,log2 fold change,[5],inactive: -0.038
same,log2 fold change,[10],inactive: -0.034
same,log2 fold change,saracatinib,inactive: 0.026
